Reference: patent publication US20050074834A1 (priority 2001, published 2005)

How the values were obtained:
[1] = tested on: Betta splendens erythrophores; assay type: cell-based
chromatophores [2] = tested on: chromatophores
chromatophores [3] = assay: cells; settings: read-out: Threshold concentration PPM

## COc1ccc([C@@H]2Sc3ccccc3N(CCN(C)C)C(=O)[C@@H]2OC(C)=O)cc1 [Diltiazem]
[1]
  Morphology Effect: Aggregation: No
  Morphology Effect: Dispersion: Yes
  erythrophore pigment dispersion response, control: failed to induce pigment dispersion response
  erythrophore pigment response after norepinephrine pre-treatment: produces pigment dispersion
Chromatophores [2]
  Threshold concentration PPB: XX (key: X=1 to 100 PPB; XX=100 to 1000 PPB)
melanophores
  effect on melanophores: does not alter melanophores

## CN(C)[C@@H]1C(O)=C(C(N)=O)C(=O)[C@@]2(O)C(O)=C3C(=O)c4c(O)cccc4[C@@](C)(O)[C@H]3C[C@@H]12 [Tetracycline]
Chromatophores [2]
  Response time Hr.: XX (key: X=1-6 hr; XX=6-24 hr)
Chromatophores [3]
  minimal effective concentration: 1 to 100 µg/mL
